# ± gives the standard error. Many of these values have a large error.
# B1: glmS ribozyme (parent)
# chain: AUAAAAGCGCCAGAACUACAGAAAUGUAGUUGACGAGGAGGAGGUUUAUCGAAUUUUCGGCGGAUGCCUCCAAA
# Variants of: B1
# Test: KM; higher = weaker cofactor use; RNA array
# Details: with glucosamine-6-phosphate
# Outline: (§1)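 Sequenced MiSeq chips were the platform: E. coli RNA polymerase transcribed barcoded ribozyme variants on them in situ, and a hybridised Cy3 probe tracked these at 37 °C. After glucosamine-6-phosphate (40 μM to 10 mM) in HEPES/KCl/Mg(OAc)2 buffer was flowed in, tiles were imaged over ~14 h. Signals normalised to baseline and to non-cleaving reference variants were reduced to per-tile medians and fit to one- or two-exponential decays to obtain kobs. kcat and KM were derived through weighted Michaelis–Menten fits across concentrations.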
row,Variant,KM [µM]
1,G40C U55G,662 ± 360
2,C34A U55G,49.8 ± 49
3,G29C U57A,2230 ± 1700
4,U31C C58G,2510 ± 2400
5,U30G U54G,1420 ± 820
6,U30G U54A,3060 ± 1700
7,U30G U54C,2170 ± 270
8,G38C C71A,320 ± 230
9,U31G A36U,166 ± 86
10,A39U G41A,651 ± 93
11,G29U G37C,145 ± 140
12,G40A U46A,1860 ± 1100
13,A39U U49G,2400 ± 1200
14,A39G C67A,854 ± 520
15,C16A U31C,4470 ± 2800
16,G37A G43A,1190 ± 620
17,A39G G66U,1960 ± 79
18,G40A A53U,2130 ± 1300
19,G40A A53C,2000 ± 1300
20,U30G U56G,1190 ± 630
21,A33C U65A,617 ± 240
22,A39G C68G,139 ± 120
23,G37C C67U,315 ± 270
24,A39G U45G,919 ± 540

row,Variant,KM [µM]
1,A39G U47A,1300 ± 800
2,G29C C58U,2150 ± 1100
3,U31C C71U,2690 ± 1700
4,A15U U47A,1960 ± 890
5,U30A A42U,588 ± 46
6,G40C A53C,2240 ± 110
7,A39G G40U,1420 ± 510
8,G40U A53U,1300 ± 390
9,G29U A48C C50U,58.8 ± 56
10,U31C C70G,428 ± 250
11,A33U C61G,319 ± 210
12,G40A A52U,4800 ± 3200
13,U31A U56G,2950 ± 1500
14,A39G A42C,1060 ± 630
15,U31A A42G U47A,1050 ± 690
16,A15U G59U,1510 ± 870
17,U30G A39U,3710 ± 2200
18,U31A U57A,2390 ± 95
19,G37A A64G,5780 ± 3900
20,A33U G40U,21400 ± 2300
21,A39U C67G,1290 ± 420
22,G40U C67A,962 ± 960
23,G41A U55G,229 ± 130
24,U31C G41U,1350 ± 260

# Copied from the listing (5 entries):
row,Variant,KM [µM]
10,U31C C70G,428 ± 250
11,A33U C61G,319 ± 210
12,G40A A52U,4800 ± 3200
13,U31A U56G,2950 ± 1500
14,A39G A42C,1060 ± 630

# (listing goes on)

row,Variant,KM [µM]
1,U31C G41A,334 ± 190
2,U30G G60A,3450 ± 1800
3,G35A C50G,1190 ± 540
4,A39C C58A,31900 ± 19000
5,G29C G37A,6200 ± 1700
6,G37A A53C C71U,1010 ± 85
7,U31C,2370 ± 430
8,A39C U56A,4000 ± 1500
9,G40U U65C,436 ± 380
10,U30G U65C,722 ± 460
11,C16G U47A,1710 ± 700
12,G32U A52G,3490 ± 570
13,U31C U65C,238 ± 120
14,A36G U47G C71G,385 ± 300
15,G37A U55A,4600 ± 2700
16,A39U U56C,2130 ± 950
17,A39U U56G,7160 ± 3700
18,G32U U45A,3440 ± 1700
19,G32U U45G,24200 ± 12000
20,C16G G41A,1460 ± 1000
21,G40A U45G,58.1 ± 46
22,G40A U45A,510 ± 160
23,A39U A53G,1410 ± 620
24,U30C G32A,3840 ± 740

row,Variant,KM [µM]
1,G29C C70U,142 ± 120
2,C16G A48U,171000 ± 90000
3,A33U A53G C70U,20900 ± 2500
4,U31C A52G C67U,4660 ± 4200
5,A39U C58A,15200 ± 5300
6,U31C U55G,2750 ± 1200
7,U31C U55A,3270 ± 1100
8,G41U A42G,1240 ± 450
9,G29C U55C,3510 ± 1600
10,A33U U49G,44.7 ± 12
11,C16U A42G,1200 ± 680
12,U30C C67U,927 ± 390
13,C16A C67G,269 ± 250
14,U31A U69A,120 ± 120
15,C16U A52G,5340 ± 3500
16,A15U C50G,53.9 ± 41
17,G29C U46G,1710 ± 930
18,G41U U56A C70A,1590 ± 970
19,C16G U55C,1270 ± 890
20,A39C A42G,1490 ± 310
21,A39C A42U,2470 ± 1400
22,A39G A48G,1140 ± 840
23,A39G A48C,2140 ± 600
24,G32A G66C,1250 ± 160

# Given tab-delimited: part of the list above.
row	Variant	KM [µM]
4	U31C A52G C67U	4660 ± 4200
5	A39U C58A	15200 ± 5300
6	U31C U55G	2750 ± 1200

# 2 records picked at random from the list so far, as already listed:
row,Variant,KM [µM]
22,G40A U45A,510 ± 160
7,A39G G40U,1420 ± 510

# The results go on.

row,Variant,KM [µM]
1,G41U U55A,170 ± 100
2,A39G C71G,147 ± 130
3,C16G C71U,956 ± 300
4,A39C A48U,2930 ± 1400
5,A39G U69G,55.4 ± 53
6,U30C,1950 ± 180
7,A39G U54A,282 ± 100
8,A39C G40C,1590 ± 47
9,G41A C71A,645 ± 210
10,G37C U45A,5840 ± 1900
11,C16G G37A,10600 ± 8200
12,G29C U47G,1800 ± 1100
13,C16U U55A,1180 ± 810
14,U30A U46A,1190 ± 650
15,U30A U46C,1730 ± 750
16,U30A U46G,1470 ± 960
17,G32A G60U,369 ± 220
18,A15U U55G,2160 ± 1300
19,G40A U54G,244 ± 190
20,G41U C70U,39.4 ± 20
21,G40U C70G,1770 ± 560
22,U31C C67U,1290 ± 260
23,A15U C70A,327 ± 260
24,G40U U69C,309 ± 280

row,Variant,KM [µM]
1,G40A A64C,2850 ± 1500
2,A33U U65A,11600 ± 970
3,A39U A42G,1440 ± 690
4,G32A U47G,3780 ± 1600
5,G37A U47A,8130 ± 4700
6,A42G C50U,5810 ± 1200
7,A39G C50A,4350 ± 2200
8,A15U G41U,258 ± 200
9,A15U G41A,577 ± 550
10,G41C A53G,940 ± 530
11,G41C A53U,1290 ± 380
12,G41U U45C,1140 ± 210
13,U31C U57A,90.6 ± 87
14,A33U U54A,993 ± 650
15,C16G A52G,3820 ± 2200
16,C16U G40U,830 ± 600
17,U31A A53C,5300 ± 2300
18,U31G G32C,5520 ± 1100
19,G29U A39C,2170 ± 670
20,G26U G40U,272 ± 64
21,G37U C61A,323 ± 250
22,U30C C71U,1530 ± 340
23,U31C G32A,6580 ± 2400

# Variants of: B1
# Test: self-cleavage kobs at 40 uM GlcN6P; higher = faster cleavage; RNA array
# Details: with glucosamine-6-phosphate
# Outline: as §1
row,Variant,self-cleavage kobs at 40 uM GlcN6P [s⁻¹]
1,G40C U55G,2.42e-05 ± 1.2e-05
2,A39U G41A,1.48e-05 ± 8.6e-06
3,A39U U49G,2.58e-05 ± 1.8e-05
4,G40C A53C,1.45e-05 ± 8.6e-06
5,G41A U55G,2.58e-05 ± 1.7e-05
6,U31C G41U,1.82e-05 ± 1.8e-05
7,G35A C50G,1.94e-05 ± 1.5e-05
8,U30C G32A,1.66e-05 ± 9.8e-06
9,U31A U69A,1.81e-05 ± 1.5e-05
10,G29C U47G,1.48e-05 ± 1.5e-05
11,G32A U47G,2.89e-05 ± 1.9e-05
12,A15U G41U,2.17e-05 ± 1.4e-05
13,G41C A53G,3.49e-05 ± 1.9e-05
14,G41C A53U,1.63e-05 ± 1.6e-05

# Variants of: B1
# Test: self-cleavage kobs at 2500 uM GlcN6P; higher = faster cleavage; RNA array
# Details: with glucosamine-6-phosphate
# Outline: as §1
row,Variant,self-cleavage kobs at 2500 uM GlcN6P [s⁻¹]
1,G29C U57A,2.39e-05 ± 2e-05
2,A39G C67A,0.308 ± 0.22
3,G37A G43A,2.19e-05 ± 1.1e-05
4,A33C U65A,3.88e-05 ± 2e-05
5,U31A A42G U47A,0.129 ± 0.08
6,A39C C58A,1.47e-05 ± 1.4e-05
7,A33U A53G C70U,1.9e-05 ± 1.3e-05
8,A39G U54A,0.0184 ± 0.0098
9,U30A U46C,0.000158 ± 0.0001
10,G40A A64C,2.96e-05 ± 1.7e-05

# Variants of: B1
# Test: self-cleavage kobs at 160 uM GlcN6P; higher = faster cleavage; RNA array
# Details: with glucosamine-6-phosphate
# Outline: as §1
row,Variant,self-cleavage kobs at 160 uM GlcN6P [s⁻¹]
1,G40A U46A,2.53e-05 ± 1.7e-05
2,A39U U49G,2.46e-05 ± 1.7e-05
3,A39G C67A,0.000419 ± 0.00032
4,U31C C70G,1.32e-05 ± 9.1e-06
5,U31C G41U,2.38e-05 ± 1.4e-05
6,G29C U46G,3.58e-05 ± 1.9e-05
7,G29C U47G,3.21e-05 ± 2e-05
8,U30A U46A,3.68e-05 ± 3.3e-05
9,A15U C70A,2.07e-05 ± 1e-05
10,G41C A53U,3.01e-05 ± 1.8e-05
11,C16G A52G,3.14e-05 ± 1.9e-05

# Variants of: B1
# Test: self-cleavage kobs at 10000 uM GlcN6P; higher = faster cleavage; RNA array
# Details: with glucosamine-6-phosphate
# Outline: as §1
row,Variant,self-cleavage kobs at 10000 uM GlcN6P [s⁻¹]
1,G37C C67U,2.44e-05 ± 1.3e-05
2,G35A C50G,0.000476 ± 0.00031
3,A15U C50G,0.000688 ± 0.00043
4,A33U U65A,1.56e-05 ± 1.5e-05
5,A39G C50A,2.28e-05 ± 1.2e-05

# Variants of: B1
# Test: self-cleavage kobs at 640 uM GlcN6P; higher = faster cleavage; RNA array
# Details: with glucosamine-6-phosphate
# Outline: as §1
row,Variant,self-cleavage kobs at 640 uM GlcN6P [s⁻¹]
1,G29C C58U,2.26e-05 ± 1.4e-05
2,G29C G37A,3.02e-05 ± 1.5e-05
3,G40U U65C,3.05e-05 ± 1.9e-05
4,G32U U45G,1.05e-05 ± 9.2e-06
5,A39U C58A,1.67e-05 ± 9.5e-06
6,A39C A42U,2.63e-05 ± 1.5e-05
7,A39G A48G,3.18e-05 ± 1.7e-05
8,U30A U46G,0.000154 ± 8e-05
9,U31C U57A,2.46e-05 ± 1.6e-05
